# Data published in article PMC8486872, “A rational blueprint for the design of chemically-controlled protein switches” (Nature Communications, 2021).
# Test system: SEAP and Luciferase expression in HEK293T cells
# Test: SIMO designer cells (AIR-1/2-GEMS + CDH-1/2-TF)
# Settings: Fig S13h; AIR-1-GEMS control SEAP expression only; Drug-1 1000 nM
smiles,measurement,value
CN(C)CC#Cc1ccc(OCCCc2sc(N3CCc4cccc(C(=O)Nc5nc6ccccc6s5)c4C3)nc2C(=O)O)c(F)c1,SEAP,"325 U/L, 295 U/L, 647 U/L"

# The source holds more than one record for some entries. They are shown here; other results are not. There may be further records. Values given together do not match, cause unknown; some may be repeats, others may stem from another dose, organism or construct than stated.
